# Data: the supplement of paper PMC8728848
# The list shows a part of the results.
# Columns and labels:
# Assay in all cases: glycan array binding signal (z-score within array); higher = stronger binding
# Details in all cases: glycan notation: IUPAC condensed, linker removed
# [1] = molecular target: GalNAc(b1-4)GlcNAc(b1-2)Man
# Summary of the method: (§1)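 Columns mapping to the same glycan were averaged after glycan names were converted to IUPAC-condensed notation. The data come from 3228 arrays in the Consortium for Functional Glycomics database, limited to those with an available protein sequence. Binding is reported as a within-array Z-score averaged across arrays of one protein sequence and across linkers.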
# [2] = molecular target: GalNAc(b1-4)GlcNAc(b1-2)Man(a1-3)[GalNAc(b1-4)GlcNAc(b1-2)Man(a1-6)]Man(b1-4)GlcNAc(b1-4)GlcNAc
# Summary of the method: as §1
# [3] = molecular target: GalNAc(b1-4)GlcNAc(b1-3)GalNAc(b1-4)GlcNAc
# Summary of the method: as §1
# GalNAc(b1-4)GlcNAc6S = molecular target: GalNAc(b1-4)GlcNAc6S
# Summary of the method: as §1
# GalNAc(b1-6)GalNAc = molecular target: GalNAc(b1-6)GalNAc
# Summary of the method: as §1
# GalNAc3S(b1-4)GlcNAc = molecular target: GalNAc3S(b1-4)GlcNAc
# Summary of the method: as §1
# GalNAc3S(b1-4)GlcNAc3S = molecular target: GalNAc3S(b1-4)GlcNAc3S
# Summary of the method: as §1
# [4] = molecular target: GalNAc3S(b1-4)[Fuc(a1-3)]GlcNAc
# Summary of the method: as §1
# GalNAc4S6S(b1-4)GlcNAc = molecular target: GalNAc4S6S(b1-4)GlcNAc
# Summary of the method: as §1
# GalNAc6S(b1-4)GlcNAc = molecular target: GalNAc6S(b1-4)GlcNAc
# Summary of the method: as §1
# Glc(a1-4)Glc = molecular target: Glc(a1-4)Glc
# Summary of the method: as §1
# [5] = molecular target: Glc(a1-4)Glc(a1-4)Glc(a1-4)Glc
# Summary of the method: as §1
# Glc(a1-6)Glc(a1-6)Glc = molecular target: Glc(a1-6)Glc(a1-6)Glc
# Summary of the method: as §1
# [6] = molecular target: Glc(a1-6)Glc(a1-6)Glc(a1-6)Glc
# Summary of the method: as §1
# Glc(b1-4)Glc = molecular target: Glc(b1-4)Glc
# Summary of the method: as §1
# Glc(b1-6)Glc = molecular target: Glc(b1-6)Glc
# Summary of the method: as §1
# GlcA(b1-3)Gal = molecular target: GlcA(b1-3)Gal
# Summary of the method: as §1
# GlcA(b1-3)GlcNAc = molecular target: GlcA(b1-3)GlcNAc
# Summary of the method: as §1
# GlcA(b1-6)Gal = molecular target: GlcA(b1-6)Gal
# Summary of the method: as §1
# [7] = molecular target: GlcA3S(b1-3)Gal(b1-4)GlcNAc(b1-2)Man
# Summary of the method: as §1
# [8] = molecular target: GlcA3S(b1-3)Gal(b1-4)GlcNAc(b1-3)Gal(b1-4)Glc
# Summary of the method: as §1
# [9] = molecular target: GlcNAc(a1-3)Gal(b1-4)GlcNAc
# Summary of the method: as §1
# [10] = molecular target: GlcNAc(a1-4)Gal(b1-3)GlcNAc
# Summary of the method: as §1
# [11] = molecular target: GlcNAc(a1-4)Gal(b1-4)GalNAc
# Summary of the method: as §1
# [12] = molecular target: GlcNAc(a1-4)Gal(b1-4)GlcNAc
# Summary of the method: as §1
# [13] = molecular target: GlcNAc(a1-4)Gal(b1-4)GlcNAc(b1-3)Gal(b1-4)Glc
# Summary of the method: as §1
# [14] = molecular target: GlcNAc(a1-4)Gal(b1-4)GlcNAc(b1-3)Gal(b1-4)GlcNAc
# Summary of the method: as §1
# [15] = molecular target: GlcNAc(a1-4)Gal(b1-4)GlcNAc(b1-3)Gal(b1-4)GlcNAc(b1-3)Gal(b1-4)GlcNAc
# Summary of the method: as §1
# [16] = molecular target: GlcNAc(a1-4)Gal(b1-4)GlcNAc(b1-3)Gal(b1-4)[Fuc(a1-3)]GlcNAc(b1-3)Gal(b1-4)[Fuc(a1-3)]GlcNAc
# Summary of the method: as §1
# [17] = molecular target: GlcNAc(a1-6)Gal(b1-4)GlcNAc
# Summary of the method: as §1
# [18] = molecular target: GlcNAc(b1-2)Gal(b1-3)GalNAc
# Summary of the method: as §1
# [19] = molecular target: GlcNAc(b1-2)Man(a1-3)[GlcNAc(b1-2)Man(a1-6)]Man(b1-4)GlcNAc(b1-4)GlcNAc
# Summary of the method: as §1
# [20] = molecular target: GlcNAc(b1-2)Man(a1-3)[GlcNAc(b1-2)Man(a1-6)]Man(b1-4)GlcNAc(b1-4)[Fuc(a1-6)]GlcNAc
# Summary of the method: as §1
# [21] = molecular target: GlcNAc(b1-2)Man(a1-3)[GlcNAc(b1-4)][GlcNAc(b1-2)Man(a1-6)]Man(b1-4)GlcNAc(b1-4)GlcNAc
# Summary of the method: as §1
# [22] = molecular target: GlcNAc(b1-2)Man(a1-3)[GlcNAc(b1-4)][GlcNAc(b1-2)Man(a1-6)]Man(b1-4)GlcNAc(b1-4)[Fuc(a1-6)]GlcNAc
# Summary of the method: as §1
# [23] = molecular target: GlcNAc(b1-2)[GlcNAc(b1-4)]Man(a1-3)[GlcNAc(b1-2)Man(a1-6)]Man(b1-4)GlcNAc(b1-4)GlcNAc
# Summary of the method: as §1
# [24] = molecular target: GlcNAc(b1-2)[GlcNAc(b1-4)]Man(a1-3)[GlcNAc(b1-4)][GlcNAc(b1-2)Man(a1-6)]Man(b1-4)GlcNAc(b1-4)GlcNAc
# Summary of the method: as §1
binder,measurement,setting,value
GS7807Q-bfa-507-19-507 (Bacteroides fragilis) (protein) ASCNKFDDLNTNPDAATKVTAPMLATKLILNITQQGSAKNFVYHSMLSKQIAWSENASDEQYNLFGRTDFDGYTILTNCQKMVDAANEGDKDSYAALAKFMKAYKLFYKSLEVGDIPYSDALKGEEGVQKPKYDTQKEVMRQVLEDLEEAYTLFSSGSDFDGDPIFGGDTENWKKTVVAFELKVLTHLCKKDTDADLKVKERFARLVSSGSLMTSNADNFQLVYSNKAGQLYPFYYTQNKHSDYLMMSSVIIDNLKKFNDYRMFYYASPAKAQTDKGIKDSEWDAYLSIDPSDSYSNISVLYGKGEFCLANLRYTRVPEGEPLMRLSYAEQNFILAEGAVRGWISEDASTYYKKGIEASMNFIADNTPDKEEYTHGRTITQEYIQEYLAQPVIQLSGDKEKDLEMILLQRYLASFLQHPYDAYYDYRRTGYPVLPINPSTNLNTEKNKIPTRWMYPEAEFSYNPDNANEAVQRQYNGSDDVNKLMWILQ,glycan array binding signal (z-score),[1],0.2
same,glycan array binding signal (z-score),[2],1.88
same,glycan array binding signal (z-score),[3],-0.241
same,glycan array binding signal (z-score),GalNAc(b1-4)GlcNAc6S,0.143
same,glycan array binding signal (z-score),GalNAc(b1-6)GalNAc,-1.45
same,glycan array binding signal (z-score),GalNAc3S(b1-4)GlcNAc,-0.67
same,glycan array binding signal (z-score),GalNAc3S(b1-4)GlcNAc3S,-0.279
same,glycan array binding signal (z-score),[4],-0.654
same,glycan array binding signal (z-score),GalNAc4S6S(b1-4)GlcNAc,-0.12
same,glycan array binding signal (z-score),GalNAc6S(b1-4)GlcNAc,1.05
same,glycan array binding signal (z-score),Glc(a1-4)Glc,-0.077
same,glycan array binding signal (z-score),[5],-0.527
same,glycan array binding signal (z-score),Glc(a1-6)Glc(a1-6)Glc,-0.453
same,glycan array binding signal (z-score),[6],0.276
same,glycan array binding signal (z-score),Glc(b1-4)Glc,-1.16
same,glycan array binding signal (z-score),Glc(b1-6)Glc,0.363
same,glycan array binding signal (z-score),GlcA(b1-3)Gal,-0.436
same,glycan array binding signal (z-score),GlcA(b1-3)GlcNAc,0.504
same,glycan array binding signal (z-score),GlcA(b1-6)Gal,-0.131
same,glycan array binding signal (z-score),[7],0.457
same,glycan array binding signal (z-score),[8],0.23
same,glycan array binding signal (z-score),[9],-0.776
same,glycan array binding signal (z-score),[10],-0.619
same,glycan array binding signal (z-score),[11],-0.22
same,glycan array binding signal (z-score),[12],-0.604
same,glycan array binding signal (z-score),[13],0.18
same,glycan array binding signal (z-score),[14],0.346
same,glycan array binding signal (z-score),[15],-0.295
same,glycan array binding signal (z-score),[16],3.02
same,glycan array binding signal (z-score),[17],-0.11
same,glycan array binding signal (z-score),[18],0.081
same,glycan array binding signal (z-score),[19],-0.879
same,glycan array binding signal (z-score),[20],-1.06
same,glycan array binding signal (z-score),[21],-0.785
same,glycan array binding signal (z-score),[22],-0.718
same,glycan array binding signal (z-score),[23],-0.054
same,glycan array binding signal (z-score),[24],-0.304

# Reformatted bar-delimited: part of the list above
binder | measurement | setting | value
GS7807Q-bfa-507-19-507 (Bacteroides fragilis) (protein) ASCNKFDDLNTNPDAATKVTAPMLATKLILNITQQGSAKNFVYHSMLSKQIAWSENASDEQYNLFGRTDFDGYTILTNCQKMVDAANEGDKDSYAALAKFMKAYKLFYKSLEVGDIPYSDALKGEEGVQKPKYDTQKEVMRQVLEDLEEAYTLFSSGSDFDGDPIFGGDTENWKKTVVAFELKVLTHLCKKDTDADLKVKERFARLVSSGSLMTSNADNFQLVYSNKAGQLYPFYYTQNKHSDYLMMSSVIIDNLKKFNDYRMFYYASPAKAQTDKGIKDSEWDAYLSIDPSDSYSNISVLYGKGEFCLANLRYTRVPEGEPLMRLSYAEQNFILAEGAVRGWISEDASTYYKKGIEASMNFIADNTPDKEEYTHGRTITQEYIQEYLAQPVIQLSGDKEKDLEMILLQRYLASFLQHPYDAYYDYRRTGYPVLPINPSTNLNTEKNKIPTRWMYPEAEFSYNPDNANEAVQRQYNGSDDVNKLMWILQ | glycan array binding signal (z-score) | GlcA(b1-3)Gal | -0.436
same | glycan array binding signal (z-score) | [12] | -0.604
